Test results as given in patent US20210220291A1, “THERAPEUTIC COMPOSITIONS AND METHODS FOR PULMONARY FIBROSIS” (priority 2020, published 2021).
At least one structure is not confirmed: it was looked up by name or label, or the drawing left a doubt.

Columns and labels:
Format in all cases: in vivo, wistar rats
MUC 5B = experiment: Bleomycin induced lung fibrosis in rats: mucin 5B in lung tissue homogenate; details: iso-garcinol 10 mg/kg, octahydrocurcumin 150 mg/kg bodyweight, individually and in combination, vs pulmonary fibrosis control (FIG. 8)
Method: (§1) After overnight fasting, the wistar rats were anesthetized (60 mg/kg ketamine HCl and 5 mg/kg xylazine) and a midline incision was made in the neck and the trachea was exposed. A tracheal cannula was inserted under direct visualization into the trachea. Pulmonary fibrosis was induced by intratracheal administration of single dose 0.1 mL of bleomycin (5 mg/kg in 0.9% NaCl). Treatment with the test material was given 5 min after administration of bleomycin for 14 consecutive days. After 14 days, BALF (bronchoalveolar lavage fluid) was obtained. Lung tissue was weighed to determine the lung index. Lung homogenate was stored at −80° C. for analysis of bio-markers. […]
(§2) The lung of the animals was removed and rinsed with ice-cold isotonic saline. […] The levels of HIF-1 alpha, TGF-β, IL-13, IL-1β, TNF-α, CCL-17, osteopontin and mucin in the lung tissue homogenate was determined using methods and protocols already reported in scientific literature.

TNF-α = experiment: Bleomycin induced lung fibrosis in rats: TNF-α in lung tissue homogenate; details: iso-garcinol 10 mg/kg, octahydrocurcumin 150 mg/kg bodyweight, individually and in combination, vs pulmonary fibrosis control (FIG. 5)
Method: as §1, §2

IL-13 = experiment: Bleomycin induced lung fibrosis in rats: IL-13 in lung tissue homogenate; details: iso-garcinol 10 mg/kg, octahydrocurcumin 150 mg/kg bodyweight, individually and in combination, vs pulmonary fibrosis control (FIG. 4)
Method: as §1, §2

osteopontin = experiment: Bleomycin induced lung fibrosis in rats: osteopontin in lung tissue homogenate; details: iso-garcinol 10 mg/kg, octahydrocurcumin 150 mg/kg bodyweight, individually and in combination, vs pulmonary fibrosis control (FIG. 7)
Method: as §1, §2

HIF-1α = experiment: Bleomycin induced lung fibrosis in rats: HIF-1 alpha in lung tissue homogenate; details: 14 days, iso-garcinol 5, 10, 20 mg/kg bodyweight and different doses of octahydrocurcumin (FIG. 1)
Method: as §1, §2
Different concentration of iso-garcinol (5, 10, 20 mg/kg bodyweight) and octahydrocurcumin were first administered to rats and the effect of the compounds in reducing hypoxia related HIF-α was evaluated. […]

CCL-17 = experiment: Bleomycin induced lung fibrosis in rats: CCL-17 in lung tissue homogenate; details: iso-garcinol 10 mg/kg, octahydrocurcumin 150 mg/kg bodyweight, individually and in combination, vs pulmonary fibrosis control (FIG. 6)
Method: as §1, §2

IL-1β = experiment: Bleomycin induced lung fibrosis in rats: IL-1β in lung tissue homogenate; details: iso-garcinol 10 mg/kg, octahydrocurcumin 150 mg/kg bodyweight, individually and in combination, vs pulmonary fibrosis control (FIG. 5)
Method: as §1, §2

COc1cc(CCC(O)CC(O)CCc2ccc(O)c(OC)c2)ccc1O (stereo not shown) [octahydrocurcumin]
MUC 5B levels (MUC 5B): reduced | TNF-α levels (TNF-α): significantly reduced | IL-13 levels (IL-13): significantly reduced | osteopontin levels (osteopontin): reduced | reduction of hypoxia related HIF-α (determination of effective dose) (HIF-1α): improved reduction at 150 mg/kg bodyweight | CCL-17 levels (CCL-17): reduced | IL-1β levels (IL-1β): significantly reduced
